PubChem BioAssay AID1053208, Peter MacCallum Cancer Centre | 2014
Purpose: 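Synthetic lethal interactions between gene loss and doxorubicin in osteosarcoma cells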 (primary screen). Cells: mouse osteosarcoma cells, early-passage culture from an engineered mouse model of fibroblastic bone tumour. Reagent: siRNA pool against mouse genes, 40 nM. Duration: about 120 h (48 h before drug, then 72 h with drug). Conditions: doxorubicin 100 nM for 72 h, roughly 30-40% inhibitory dose. Measurement: 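Viability read as ATP luminescence after 72 h of 100 nM doxorubicin or none, duplicate wells averaged, scaled to non-targeting siRNA, then expressed as robust z-scores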. Reading the numbers: viability z-score with doxorubicin: higher = more viable cells under doxorubicin; viability z-score without drug: higher = more viable cells with knock-down alone. Hit rule: 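Called active if knock-down leaves viability unchanged without drug (z within -2 to 2) but lowers it with doxorubicin (z at or under -2)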.
Here is an unselected part of about 17,000 reagents tested. Of all reagents, 788 (4.7%) got an active call. 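Calls rest on z-score classes alone; an extra cut-off of viability at most 70% of control was not applied to them.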 The numbers tell different reagents against one gene apart. Some reagents were tested in more than one well and are listed for each. Further read-outs or replicates are left out here. No sequences are given here.

gene symbol	pool no.	combined z-score class	viability z-score with doxorubicin	viability z-score without drug	activity call
Ago2	1	no change with or without drug	-0.56	1.18	inactive
Ccl12	1	no change with or without drug	0.34	-1.18	inactive
Ccl12	1	no change with or without drug	0	-0.84	inactive
Dpp6	1	no change with or without drug	0.22	0.51	inactive
Dpp6	2	no change with or without drug	-0.45	-0.17	inactive
Sox9	1	no change with or without drug	-0.34	-1.52	inactive
Calhm2	1	no change with or without drug	0.34	1.52	inactive
Or52p2	1	no change with or without drug	0.79	0.67	inactive
Zfp513	1	no change with or without drug	0.34	0.51	inactive
Mapk12	1	high cell count without drug only	1.35	2.02	inactive
Efnb3	1	no change with or without drug	-0.22	0.51	inactive

Entries listed so far whose gene name begins with D or d (2):
gene symbol	pool no.	combined z-score class	viability z-score with doxorubicin	viability z-score without drug	activity call
Dpp6	1	no change with or without drug	0.22	0.51	inactive
Dpp6	2	no change with or without drug	-0.45	-0.17	inactive

Further entries follow:
gene symbol	pool no.	combined z-score class	viability z-score with doxorubicin	viability z-score without drug	activity call
Setd4	1	no change with or without drug	-0.22	-0.51	inactive
Asph	1	no change with or without drug	0.56	0.84	inactive
Plcb1	1	no change with or without drug	0.34	0.67	inactive
BC030500	1	no change with or without drug	-0.9	-0.51	inactive
Ppp1cb	1	no change with or without drug	0.22	-1.01	inactive
Gdpd2	1	no change with or without drug	-0.34	1.18	inactive
Capza1	1	no change with or without drug	0.22	0	inactive
Pkn3	1	no change with or without drug	-0.67	-0.17	inactive
Cbll1	1	low cell count with doxorubicin only	-2.02	-0.51	active
Ccnj	1	no change with or without drug	0.22	1.01	inactive
Get4	1	no change with or without drug	-1.46	-1.35	inactive
Prl2a1	1	no change with or without drug	0.45	0.51	inactive
2900052N01Rik	1	no change with or without drug	0.45	0.84	inactive
Slco1a4	1	no change with or without drug	1.35	0.67	inactive
Tmbim4	1	no change with or without drug	1.91	0.84	inactive
Tmem9b	1	no change with or without drug	-0.9	-0.84	inactive
Mtor	1	low cell count with doxorubicin only	-2.25	0.51	active
Agap3	1	no change with or without drug	-1.57	-0.84	inactive
Bub1b	1	no change with or without drug	-1.12	0.17	inactive
Fgf5	1	no change with or without drug	-0.67	-0.34	inactive
Rab11a	1	no change with or without drug	0	-0.17	inactive
Larp7	1	no change with or without drug	0.45	-0.84	inactive
Kdm6a	1	no change with or without drug	0.67	0.34	inactive
